This is an account of results in PubChem BioAssay AID248 (DTP/NCI, 2004).

The test system of the experiment is L1210 leukemia ip in BDF1 mice, survival T/C. Briefly: NCI In Vivo Anticancer Drug Screen. Data for tumor model L1210 Leukemia (intraperitoneal) in B6D2F1 (BDF1) mice. The following applies: T/C endpoint: mean survival time, higher T/C = longer survival; for T/C: vehicle: saline with Tween-80.
Where [1] appears, read: dose: 400.0 mg/kg/injection, schedule: Q01DX001 (ip), vehicle: saline.

The list does not hold the whole screen: it is rich in T/C values a quarter to a half above the control, in often repeated tests (any T/C) and in doses without a T/C. Further doses and runs are listed elsewhere. T/C is the treated group as % of the vehicle group. Some doses have a count of surviving animals in place of a T/C: the source holds a T/C of zero for them, seemingly a mark for toxic or unscored doses. Some doses without a T/C left all or most animals alive at the check, yet need not have been tolerated: survival well below the control is almost never listed, so the zero probably covers shortened survival too. Counts of survivors are from the toxicity check (mostly the fifth day) where no day follows; animals may have died later. Schedule codes are those of the source, read here as Q, the interval in days (D) or hours (H), X, the number of doses. Some entries hold several experiments; the results are listed from low to high. Some molecules as drawn cover several salts, stereoisomers or complexes of the source; a dose is that of the sample tested. Where survival is the endpoint, this PubChem deposit counts one and a half times the control or more as active, and values a quarter to a half above the control carry no call in these data; other NCI protocols may use other cut-offs. Some T/C values are followed by the survivors on the day toxicity was checked, most often the fifth; where none is given, no animal had died by that day.

Turning to `CC1([CH2][Hg][I])COCC([CH2][Hg][I])O1` (centres undefined), the survivor count runs as follows: (dose: 6.25 mg/kg/injection, schedule: Q01DX001 (ip), vehicle: saline) 3 of 6; (dose: 12.5 mg/kg/injection, schedule: Q01DX001 (ip), vehicle: saline) 2 of 6; (dose: 25.0 mg/kg/injection, schedule: Q01DX001 (ip), vehicle: saline) 0 of 6; (dose: 35.0 mg/kg/injection, schedule: Q04DX003 (ip), vehicle: saline) 3 of 6; (dose: 50.0 mg/kg/injection, schedule: Q01DX001 (ip), vehicle: saline) 1 of 6; (dose: 100.0 mg/kg/injection, schedule: Q01DX001 (ip), vehicle: saline) 0 of 6. The survivor count (dose: 200.0 mg/kg/injection, schedule: Q01DX001 (ip), vehicle: saline) is 0 of 6.

`CC[CH2][Sn]([CH2]CC)([CH2]CC)[O]C(=O)CN1CCC[CH]([Hg][c]2cccnc2)C1` (centres undefined): the survivor count under setting [1] is 0 of 6.

`CCC1CC(O)c2c(O)c3c(c(O)c2C1O)C(=O)c1cccc(O)c1C3=O` (centres undefined) (tested in a mixture with another compound): the survivor count is listed as 5 of 6 (dose: 1.0 mg/kg/injection, schedule: Q01DX015 (ip), vehicle: carboxymethylcellulose (CMC)); 4 of 6 (dose: 2.0 mg/kg/injection, schedule: Q01DX015 (ip), vehicle: carboxymethylcellulose (CMC)); 1 of 6 (dose: 3.12 mg/kg/injection, schedule: Q01DX015 (ip), vehicle: carboxymethylcellulose (CMC)); 2 of 6 (dose: 6.25 mg/kg/injection, schedule: Q01DX001 (ip), vehicle: carboxymethylcellulose (CMC)); 0 of 6 (dose: 6.25 mg/kg/injection, schedule: Q01DX015 (ip), vehicle: carboxymethylcellulose (CMC)); 0 of 6 (dose: 12.5 mg/kg/injection, schedule: Q01DX001 (ip), vehicle: carboxymethylcellulose (CMC)). Moreover, the survivor count is listed as 0 of 6 (dose: 12.5 mg/kg/injection, schedule: Q01DX015 (ip), vehicle: carboxymethylcellulose (CMC)); 0 of 6 (dose: 25.0 mg/kg/injection, schedule: Q01DX001 (ip), vehicle: carboxymethylcellulose (CMC)); 0 of 6 (dose: 25.0 mg/kg/injection, schedule: Q01DX015 (ip), vehicle: carboxymethylcellulose (CMC)); 0 of 4 (dose: 50.0 mg/kg/injection, schedule: Q01DX001 (ip), vehicle: carboxymethylcellulose (CMC)); 0 of 6 (dose: 50.0 mg/kg/injection, schedule: Q01DX015 (ip), vehicle: carboxymethylcellulose (CMC)); 0 of 4 (dose: 100.0 mg/kg/injection, schedule: Q01DX001 (ip), vehicle: carboxymethylcellulose (CMC)). For the same compound, the survivor count is listed as 0 of 6 (dose: 100.0 mg/kg/injection, schedule: Q01DX015 (ip), vehicle: carboxymethylcellulose (CMC)); 0 of 4 (dose: 200.0 mg/kg/injection, schedule: Q01DX001 (ip), vehicle: carboxymethylcellulose (CMC)); 0 of 6 (dose: 200.0 mg/kg/injection, schedule: Q01DX015 (ip), vehicle: carboxymethylcellulose (CMC)); 0 of 4 (dose: 400.0 mg/kg/injection, schedule: Q01DX001 (ip), vehicle: carboxymethylcellulose (CMC)); 0 of 6 (dose: 400.0 mg/kg/injection, schedule: Q01DX015 (ip), vehicle: carboxymethylcellulose (CMC)).

As to `CN(CCO)N=Nc1ccccc1C(N)=O`, the T/C is 127 % of control (dose: 78.0 mg/kg/injection, schedule: Q01DX009 (ip)); 131 % of control (dose: 118.0 mg/kg/injection, schedule: Q01DX009 (ip)); 129 % of control [5 of 6 alive] (dose: 177.0 mg/kg/injection, schedule: Q01DX009 (ip)); 136 % of control (dose: 200.0 mg/kg/injection, schedule: Q01DX009 (ip)); 149 % of control (dose: 266.0 mg/kg/injection, schedule: Q01DX009 (ip)).

As to `CCC1CN2CCc3cc(OC)c(OC)cc3C2CC1CC1c2cc(OC)c(OC)cc2CCN1C(=O)C1CCCN1` (centres undefined), the survivor count under setting [1] is 0 of 4.

In the case of `COC(=O)c1ccccc1Cn1ccnc1`, the survivor count (dose: 400.0 mg/kg/injection, schedule: Q01DX009 (ip), vehicle: saline) is 0 of 6 and 1 of 3; the survivor count (dose: 400.0 mg/kg/injection, schedule: Q04DX003 (ip), vehicle: saline) was 5 of 6.

`CCCCOC1CC2c3ccccc3C1c1cccc[n+]12` (centres undefined): the survivor count was 1 of 6 (dose: 25.0 mg/kg/injection, schedule: Q04DX003 (ip), vehicle: saline); 0 of 6 and 3 of 6 (dose: 50.0 mg/kg/injection, schedule: Q01DX009 (ip), vehicle: saline).

For `CC[N+](C)(C)CCC#N`, the survivor count reads like this: (dose: 75.0 mg/kg/injection, schedule: Q01DX001 (ip), vehicle: saline) 2 of 6; (dose: 150.0 mg/kg/injection, schedule: Q01DX001 (ip), vehicle: saline) 0 of 6; (dose: 300.0 mg/kg/injection, schedule: Q01DX001 (ip), vehicle: saline) 0 of 6.

For `CCc1ccccc1NC(=O)N1CCCCC1C` (centres undefined), the survivor count (dose: 400.0 mg/kg/injection, schedule: Q01DX009 (ip), vehicle: Klucel (hydroxypropylcellulose) (HPC)) is recorded as 4 of 6.
